These results are taken from paper PMC5758712.

Chains of the proteins cited; added tags and fusions are not shown. Lines headed by an entry give the natural chain unless they say otherwise; changes in a name come on top. Residues count along the entry.
UniProt P51668: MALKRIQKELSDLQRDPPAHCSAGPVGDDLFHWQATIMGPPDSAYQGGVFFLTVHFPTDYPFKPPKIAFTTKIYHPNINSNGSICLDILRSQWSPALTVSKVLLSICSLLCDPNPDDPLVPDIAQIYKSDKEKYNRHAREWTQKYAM
UniProt Q9NWF9, residues 510-801: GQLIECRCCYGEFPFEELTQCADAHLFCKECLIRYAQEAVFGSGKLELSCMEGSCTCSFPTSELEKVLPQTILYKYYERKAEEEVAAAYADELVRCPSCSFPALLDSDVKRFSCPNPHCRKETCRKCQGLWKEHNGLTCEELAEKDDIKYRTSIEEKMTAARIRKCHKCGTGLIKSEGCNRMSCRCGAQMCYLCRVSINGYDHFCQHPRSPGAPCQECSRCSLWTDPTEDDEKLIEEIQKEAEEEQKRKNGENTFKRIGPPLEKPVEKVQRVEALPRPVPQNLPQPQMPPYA

No constants are given. Whether binding was seen depends on the method and setting.

The target in one assay is UbcH5A (UniProt P51668). Description: condition: 25–30 μM E2 in the cell, 250–300 μM RBR in the syringe; ITC; E2 or E2~Ub in the cell at 25–30 μM, RBR in the syringe at 250–300 μM; 293 K; 25 mM Hepes pH 7.5, 150 mM NaCl, 0.5 mM TCEP; 1:1 binding model; both purified.
The next assay deals with TRIAD3A-RBR (human) (UniProt Q9NWF9). Put plainly: SEC-SAXS; in-line SEC-SAXS, Bio-SEC 3 (Agilent) column, 25 mM Hepes pH 7.5, 150 mM NaCl, 0.5 mM TCEP, 25 °C; samples loaded at about 200 μM (HHARI samples 46–51 μM); both purified. On the technique in general: In gel filtration, larger molecules generally elute earlier.

For “TRIAD3A-RBR (from UniProt Q9NWF9-2 510-801) (domain or fragment)”, the figures for the binding result in the assay with UbcH5A and with TRIAD3A-RBR (human) were “no binding” and “no binding (tested: 200 μM)”, respectively.
